Here are results for 1 molecule from US20110008369A1.

Protein sequences, listed by entry. Tags and fused reporters are not part of them. Lines headed by an entry give the natural chain unless they say otherwise; changes in a name come on top.
UniProt Q15116: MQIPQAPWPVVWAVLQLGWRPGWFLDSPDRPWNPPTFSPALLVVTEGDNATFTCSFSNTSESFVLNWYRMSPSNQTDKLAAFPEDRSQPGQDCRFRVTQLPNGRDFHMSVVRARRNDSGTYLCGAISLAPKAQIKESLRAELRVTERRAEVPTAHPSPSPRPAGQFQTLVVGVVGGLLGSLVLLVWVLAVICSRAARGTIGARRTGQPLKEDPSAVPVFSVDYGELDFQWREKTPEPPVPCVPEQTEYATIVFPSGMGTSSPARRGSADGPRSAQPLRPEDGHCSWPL

These are yes or no findings as the source states them, for the method shown. Some results given as binding are weak or reduced against the parent protein; the word gives no strength.

The target of the test is human PD-1 (Programmed Cell Death 1), expressed on cells (human) (UniProt Q15116). The experiment in a line: cell binding to activated human CD4+ cells.

B1: mAb 1.8A10 (antibody, V domains shown)
VH: EVQLVESGGGLVKPGGSLKLSCAASGFTFSNYDMSWIRQTPEKRLEWVAYISGGGGNTYYPDTLKGRFTISRDNAKNTLYLQMSSLKSEDTAMFYCVRISLTGIFDYWGQGTTLTVSS
VL: DVLMTQTPLSLPVSLGDQASISCRSSQSIVQSNGNTYLEWYLQKPGQSPKLLIYKVSNRFSGVPDRFSGSGSGTDFTLKISRVEAEDLGVYYCFQGSHVPWTFGGGTKLEIKR
As to B1, the binding entry is on record as “binds”.
